Assay results taken from PMC10978903.
Results are given in words; binding and its absence hold for the method and conditions named. In cells and extracts the contact can be indirect. Some entries that bind do so weakly or less than the wild type. Sequences can lack the tags named with a protein.

T1: Flag-GR50-GFP (poly-glycine-arginine, 50 repeats), transgenic mouse
T1 sequence: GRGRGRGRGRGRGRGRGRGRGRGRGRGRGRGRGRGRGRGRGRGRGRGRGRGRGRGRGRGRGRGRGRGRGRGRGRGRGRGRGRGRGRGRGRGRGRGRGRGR

T2: karyopherin β2 (Kapβ2), endogenous in mouse cortex and spinal cord (mouse (endogenous in cortex and spinal cord)) (UniProt Q8BFY9)
T2 sequence: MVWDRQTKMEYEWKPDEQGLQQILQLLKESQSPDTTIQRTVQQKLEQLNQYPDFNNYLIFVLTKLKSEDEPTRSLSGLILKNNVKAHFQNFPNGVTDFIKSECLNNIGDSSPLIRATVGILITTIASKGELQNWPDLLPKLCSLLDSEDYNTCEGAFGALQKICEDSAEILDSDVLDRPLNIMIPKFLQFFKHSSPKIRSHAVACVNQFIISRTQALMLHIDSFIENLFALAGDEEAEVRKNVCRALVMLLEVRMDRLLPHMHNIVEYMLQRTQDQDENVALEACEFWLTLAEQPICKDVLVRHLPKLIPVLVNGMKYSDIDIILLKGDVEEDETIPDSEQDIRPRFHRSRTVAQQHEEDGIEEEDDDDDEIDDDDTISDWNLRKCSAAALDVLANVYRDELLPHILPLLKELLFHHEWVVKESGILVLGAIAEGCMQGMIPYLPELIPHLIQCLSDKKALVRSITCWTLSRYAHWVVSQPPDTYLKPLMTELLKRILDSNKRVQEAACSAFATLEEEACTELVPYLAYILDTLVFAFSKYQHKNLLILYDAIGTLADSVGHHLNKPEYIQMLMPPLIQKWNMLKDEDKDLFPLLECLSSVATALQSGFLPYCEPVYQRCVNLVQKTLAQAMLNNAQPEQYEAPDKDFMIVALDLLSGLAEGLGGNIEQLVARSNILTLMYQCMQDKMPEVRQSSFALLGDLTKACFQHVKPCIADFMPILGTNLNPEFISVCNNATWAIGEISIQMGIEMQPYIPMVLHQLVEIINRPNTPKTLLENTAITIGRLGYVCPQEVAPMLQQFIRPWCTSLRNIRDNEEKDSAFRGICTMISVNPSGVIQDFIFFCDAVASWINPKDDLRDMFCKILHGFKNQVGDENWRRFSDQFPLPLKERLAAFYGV


Legend:
[1] = target: T1, Flag-GR50-GFP (poly-glycine-arginine, 50 repeats), transgenic mouse; assay: co-IP; anti-GFP antibody cross-linked to magnetic beads; cortex and spinal cord lysates of Flag-GR50-GFP mice; non-transgenic tissue and IgG as controls; western blot for GFP and Kapβ2
[2] = target: T2, karyopherin β2 (Kapβ2), endogenous in mouse cortex and spinal cord (mouse (endogenous in cortex and spinal cord)); assay: co-IP; reverse co-IP: Kapβ2 antibody cross-linked to magnetic beads (double volume of beads); cortex and spinal cord lysates of Flag-GR50-GFP mice; western blot

Row | Binder | binding [1] | binding [2]
1 | karyopherin β2 (Kapβ2), endogenous in mouse cortex and spinal cord (protein, UniProt Q8BFY9 1-898) MVWDRQTKMEYEWKPDEQGLQQILQLLKESQSPDTTIQRTVQQKLEQLNQYPDFNNYLIFVLTKLKSEDEPTRSLSGLILKNNVKAHFQNFPNGVTDFIKSECLNNIGDSSPLIRATVGILITTIASKGELQNWPDLLPKLCSLLDSEDYNTCEGAFGALQKICEDSAEILDSDVLDRPLNIMIPKFLQFFKHSSPKIRSHAVACVNQFIISRTQALMLHIDSFIENLFALAGDEEAEVRKNVCRALVMLLEVRMDRLLPHMHNIVEYMLQRTQDQDENVALEACEFWLTLAEQPICKDVLVRHLPKLIPVLVNGMKYSDIDIILLKGDVEEDETIPDSEQDIRPRFHRSRTVAQQHEEDGIEEEDDDDDEIDDDDTISDWNLRKCSAAALDVLANVYRDELLPHILPLLKELLFHHEWVVKESGILVLGAIAEGCMQGMIPYLPELIPHLIQCLSDKKALVRSITCWTLSRYAHWVVSQPPDTYLKPLMTELLKRILDSNKRVQEAACSAFATLEEEACTELVPYLAYILDTLVFAFSKYQHKNLLILYDAIGTLADSVGHHLNKPEYIQMLMPPLIQKWNMLKDEDKDLFPLLECLSSVATALQSGFLPYCEPVYQRCVNLVQKTLAQAMLNNAQPEQYEAPDKDFMIVALDLLSGLAEGLGGNIEQLVARSNILTLMYQCMQDKMPEVRQSSFALLGDLTKACFQHVKPCIADFMPILGTNLNPEFISVCNNATWAIGEISIQMGIEMQPYIPMVLHQLVEIINRPNTPKTLLENTAITIGRLGYVCPQEVAPMLQQFIRPWCTSLRNIRDNEEKDSAFRGICTMISVNPSGVIQDFIFFCDAVASWINPKDDLRDMFCKILHGFKNQVGDENWRRFSDQFPLPLKERLAAFYGV | binds | –
2 | Flag-GR50-GFP (poly-glycine-arginine, 50 repeats), transgenic mouse (protein) GRGRGRGRGRGRGRGRGRGRGRGRGRGRGRGRGRGRGRGRGRGRGRGRGRGRGRGRGRGRGRGRGRGRGRGRGRGRGRGRGRGRGRGRGRGRGRGRGRGR | – | binds
